From PubChem BioAssay AID445 (National Center for Advancing Translational Sciences (NCATS), 2006)
The other results are listed elsewhere or left out. The main result of the screen is listed elsewhere. These columns were measured beside it and carry no call. The list favours compounds with an active or inconclusive main result. Words in brackets tell the shape of the fitted curve; partial curves, single points and poor fits give uncertain potencies.

Assay: IkB Signaling
Conditions: ABC-DLBCL IkBa-CBG/CBR dual luciferase ratio (green luciferase fused to IkBa over red control in OCI-Ly3 lymphoma cells), 4 h
Procedure, shortened: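 Curves were fitted separately to fusion (green), unfused (red) and ratio luminescence, then classed by r2, magnitude and activity. Cells: OCI-Ly3, 4 h compound plus doxycycline at 37C; 10 uM MG-132 defined full response.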

[1] = measured here: control luc red channel unless noted
[2] = measured here: IkB-luc green channel
[3] = measured here: control luc red channel

Cc1ccc(S(=O)(=O)Cn2nnnc2C(c2ccc(F)cc2)N2CCCCC2)cc1 (stereo not drawn)
AC50 [1]: 25.1 µM [falling, partial curve]

COCCNC(=O)CCn1c(=O)c2cc(OC)c(OC)cc2n(CC(=O)Nc2ccccc2OC)c1=O
AC50 [1]: 1.26 µM [falling, full curve]

CC(=O)c1nnn(-c2nc(N)nc(N(c3ccccc3)c3ccccc3)n2)c1C
AC50 [1]: 10 µM [falling, partial curve]

CCc1cccc(CC)c1N(COC)C(=O)Cn1c(C)nc2ccccc21
AC50 [1]: 25.1 µM [falling, partial curve]

O=C(Nc1ccc(F)c(Cl)c1)C1Cc2ccccc2CN1S(=O)(=O)c1ccc(F)cc1 (stereo not drawn)
AC50 [1]: 1.26 µM [falling, full curve]

Clc1ccc(N2CCN(Cc3nnc(-c4ccc5c(c4)OCO5)o3)CC2)cc1
AC50 [1]: 12.6 µM [falling, partial curve]

COc1ccc(NC(=O)C2=C(C)Nc3c(C(=O)Nc4ccc(C)cc4)cnn3C2c2cccc(Cl)c2)cc1 (stereo not drawn)
AC50 [1]: 31.6 µM [falling, single point]

O=C(NC(C(=O)c1ccccc1)n1ccc(=O)[nH]c1=O)c1ccccc1 (stereo not drawn)
AC50 [1]: 15.8 µM [falling, partial curve]

CCOC(=O)N1CCN(S(=O)(=O)c2ccc(C(=O)Nc3nc4ccccc4s3)cc2)CC1
AC50 [1]: 0.0501 µM [falling, full curve]

CC(=O)N1c2ccccc2CC1C(=O)N1CCN(c2cccc(C)c2C)CC1 (stereo not drawn)
AC50 [1]: 2 µM [falling, partial curve]

Cc1oc2ccc(O)c(CN3CCOCC3)c2c1C(=O)Nc1ccc(C(C)C)cc1
AC50 [1]: 15.8 µM [falling, partial curve]

Cc1ccc2onc(CC(=O)N3CCN(c4ccccc4F)CC3)c2c1
AC50 [1]: 3.98 µM [falling, partial curve]

COc1ccc(-c2onc(C)c2C)cc1S(=O)(=O)Nc1ccc(OC(F)(F)F)cc1
AC50 [1]: 31.6 µM [falling, single point]

Cc1ccc(CSc2oc(-c3ccco3)nc2S(=O)(=O)c2ccc(Cl)cc2)cc1
AC50 [1]: 25.1 µM [falling, single point]

CCOC(=O)c1cccc(NC(=O)c2cc(S(=O)(=O)N3CCCC3)cn2C)c1
AC50 [1]: 31.6 µM [falling, single point]

COc1ccc(OC)c(-c2cc(C(=O)Nc3c(C)nn(Cc4ccc(Cl)cc4)c3C)no2)c1
AC50 [1]: 10 µM [falling, partial curve]

O=C(Nc1nc(-c2ccc(Cl)s2)cs1)c1cccs1
AC50 [1]: 5.01 µM [falling, partial curve]

CCCOC(=O)c1ccc(NC(=O)Cn2nnc3sc4c(c3c2=O)CCC(C(C)(C)C)C4)cc1 (stereo not drawn)
AC50 [1]: 39.8 µM [falling, single point]

CC(=O)c1cc(-c2ccc(F)cc2)n(CC(=O)NC2CCCCCC2)c1C
AC50 [1]: 0.631 µM [rising, full curve, poor fit]

COc1ccc(NC(=O)c2ccco2)cc1NC(=O)C(C)Oc1ccc(Cl)cc1Cl (stereo not drawn)
AC50 [1]: 10 µM [falling, partial curve]

Cc1nc(NC(=O)c2ccccc2)sc1-c1csc(NCc2ccco2)n1
AC50 [1]: 10 µM [falling, partial curve]

N#Cc1c(NC(=O)CSCC(=O)O)sc2c1CCCC2
AC50 [1]: 31.6 µM [falling, single point]

CCCCOc1ccc(C2=NC(c3ccccc3)=Nc3ccc(OC)cc3N2)cc1
AC50 [1]: 39.8 µM [falling, single point]

Clc1ccccc1Cc1cn2cc(-c3ccccc3)nc2s1
AC50 [1]: 0.02 µM [falling, full curve]

C=CCc1c(C)nc2nc(SCC(=O)Nc3ccc(OCC)cc3)nn2c1C
AC50 [1]: 39.8 µM [falling, single point]

CC(C)c1ccc(Nc2ncnc3c2c(-c2ccccc2)cn3-c2ccccc2)cc1
AC50 [1]: 10 µM [falling, partial curve]

COc1ccccc1CNC(=O)Cn1nc(C)c2nn(-c3ccc(Cl)cc3)c(C)c2c1=O
AC50 [1]: 0.00631 µM [falling, full curve, poor fit]

CC(C)COc1ccccc1C1CC(=O)Nc2cc3c(cc21)OCO3 (stereo not drawn)
AC50 [1]: 15.8 µM [falling, partial curve]

Cc1ccc(NC(=O)c2ccc(F)c(S(=O)(=O)N3CCOCC3)c2)cc1F
AC50 [1]: 15.8 µM [falling, partial curve]

Clc1cccc(-n2ncc3c(N4CCN(Cc5ccccc5)CC4)ncnc32)c1
AC50 [1]: 25.1 µM [falling, partial curve]

COc1cccc(CNC(=O)Cn2ccc3cc(S(=O)(=O)N4CCC(C)CC4)ccc32)c1
AC50 [1]: 3.16 µM [falling, full curve]

Cc1cc(C)cc(OCC(=O)N(Cc2ccc(C)o2)C2CCS(=O)(=O)C2)c1 (stereo not drawn)
AC50 [1]: 39.8 µM [falling, single point]

CCC(CC)C(=O)Nc1ccc2nc(SCC(=O)N3c4ccccc4CC3C)sc2c1 (stereo not drawn)
AC50 [1]: 3.16 µM [falling, full curve]

CCOC(=O)c1c(C)sc(-c2c(-c3ccc(OC)c(F)c3)[nH]c3c2c(=O)[nH]c(=O)n3C)c1O
AC50 [1]: 15.8 µM [falling, partial curve]

COc1ccc(Cl)cc1NC(=O)c1c(NCc2ccc(C)o2)sc2c1CCCC2
AC50 [1]: 39.8 µM [falling, single point]

COc1cccc(N(CC(=O)N2CCC(C)CC2)S(=O)(=O)c2ccc(C)cc2)c1
AC50 [1]: 31.6 µM [falling, single point]

COCCNC(=O)c1cc2c(Cl)nc3ccc(C)cc3c2s1
AC50 [1]: 3.16 µM [rising, partial curve]

Cc1ccc(CN(Cc2ccco2)C(=O)c2oc3c(C)c(C)ccc3c2C)cc1
AC50 [1]: 10 µM [falling, partial curve]

CCC(C)NC(=O)CSc1nc2cc3c(cc2c(=O)n1CCCC(=O)NCc1ccc2c(c1)OCO2)OCO3 (stereo not drawn)
AC50 [1]: 7.94 µM [rising, full curve]

CN(C)c1ccc(C(=C2C=CC(=[N+](C)C)C=C2)c2ccccc2)cc1
AC50 [2]: 0.251 µM [falling, full curve, poor fit]
AC50 [3]: 0.0794 µM [falling, full curve]

CCOC(=O)c1c(-c2ccccc2)oc2ccc(NS(=O)(=O)c3ccc(C(C)C)cc3)cc12
AC50 [1]: 1 µM [falling, full curve]

CCCCCn1c(=N)n(CC(O)COc2ccccc2OC)c2ccccc21 (stereo not drawn)
AC50 [2]: 10 µM [falling, partial curve]
AC50 [3]: 15.8 µM [falling, partial curve]

COc1ccc(N2Cc3cccc(C(=O)NC(C)CCc4ccco4)c3C2=O)cc1 (stereo not drawn)
AC50 [1]: 25.1 µM [falling, partial curve]

Cc1ccc(Cn2nc(C)c(NC(=O)c3cc(-c4ccco4)on3)c2C)cc1
AC50 [1]: 15.8 µM [falling, partial curve]

CCOc1ccc(CNC(=O)CCCn2c(=O)c3cccn3c3ccc(F)cc32)cc1
AC50 [1]: 12.6 µM [falling, partial curve]

Cn1c(=O)c(=O)n(C)c2cc(NC(=O)c3ccccc3Br)ccc21
AC50 [1]: 3.98 µM [falling, single point]

CC(=O)N1CCc2c(sc3c2c(=O)n(Cc2ccccc2)c(=O)n3CC(=O)Nc2ccc(C)c(F)c2)C1
AC50 [1]: 12.6 µM [falling, partial curve]

COc1ccc(CN2C(=O)C(NC(=O)c3ccccc3OC)(C(F)(F)F)N=C2c2ccccc2)cc1 (stereo not drawn)
AC50 [1]: 10 µM [falling, partial curve]

CCc1ccc(S(=O)(=O)c2nnn(-c3cccc(C)c3)c2N)cc1
AC50 [1]: 31.6 µM [falling, partial curve]

CCc1ccc(NC(=O)CCn2cnc3ccccc3c2=O)cc1
AC50 [1]: 39.8 µM [falling, single point]

COc1ccc(NC(=O)Cn2ccn(-c3ccccc3)c(=O)c2=O)cc1
AC50 [1]: 31.6 µM [falling, single point]

Cc1ccc(-c2nc3cccnc3s2)cc1NC(=O)Cc1ccccc1
AC50 [1]: 12.6 µM [falling, partial curve]

COc1ccccc1Nc1ncnc2c1nc1n2CCCC1
AC50 [1]: 3.98 µM [rising, full curve]

Cc1ccc(-n2nc(C)c3c(C(=O)Nc4ccc(Br)c(C)c4)cc(C)nc32)cc1
AC50 [1]: 31.6 µM [falling, partial curve]

COc1ccc(CCC(=O)NCc2ccc3c(c2)CCN3C(=O)c2ccc(C)cc2)cc1
AC50 [1]: 31.6 µM [falling, partial curve]

CSc1nnc(Cc2cc(=O)[nH]c(=O)[nH]2)n1-c1cccc(C)c1
AC50 [1]: 12.6 µM [falling, partial curve]

O=C(O)CCCCCN1C(=O)CSC1=S
AC50 [1]: 1 µM [falling, partial curve]

O=C(Nc1nnc(S(=O)(=O)N2CCOCC2)s1)c1ccc(F)cc1
AC50 [1]: 3.16 µM [falling, partial curve]

N#Cc1cccc(NC(=O)c2ccc3c(c2)N(Cc2cccc(Cl)c2)C(=O)c2ccccc2S3(=O)=O)c1
AC50 [1]: 10 µM [falling, partial curve]

O=C(c1ccc(F)cc1F)N1CCC(c2noc(-c3ccc(S(=O)(=O)N4CCCC4)cc3)n2)CC1
AC50 [1]: 39.8 µM [falling, single point]

COc1ccc(C[C@@H]2C(=O)N[C@H](C)C(=O)N(C)[C@@H]3Cc4ccc(cc4)Oc4cc(ccc4O)C[C@H](C(=O)N[C@@H](C)C(=O)N[C@H](C)C(=O)N2C)N(C)C3=O)cc1
AC50 [1]: 0.0631 µM [falling, full curve]
